Experimental data reported in article PMC12651786.
These are yes or no findings as the source states them, for the method shown. Binding seen in cells or lysates may run through a third protein. Some binding calls cover weakened binding; strength is not graded here.

Chains of the proteins cited; added tags and fusions are not shown.
UniProt P26883: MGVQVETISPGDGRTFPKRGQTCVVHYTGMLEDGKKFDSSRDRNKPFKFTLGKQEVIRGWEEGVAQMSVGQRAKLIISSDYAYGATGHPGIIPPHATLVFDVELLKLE

Columns and labels:
[1] = biological target: RyR1 Cys3636Ala (C3636A) knock-in mutant (mouse) (mouse (endogenous in mouse hind-limb muscle)) (UniProt E9PZQ0); assay: co-IP; RyR1 immunoprecipitated with anti-RyR1 mouse monoclonal Ab (MA3-925) and Dynabeads-Protein G from SR vesicles (at 20 % O2) solubilized in 1 % Nonidet P40, 250 mM NaCl, 5 mM EDTA; Western blot for CaM or FKBP12; n = 4 mice per group
[2] = biological target: ryanodine receptor/Ca2+-release channel RyR1, wild type (mouse) (mouse (endogenous in mouse hind-limb muscle)) (UniProt E9PZQ0); assay: as above

FKBP12 (from UniProt P26883 1-108)
binding [1]: binds | binding [2]: binds
